# In PubChem BioAssay AID1794845 (National Center for Advancing Translational Sciences (NCATS), 2023):
# By UniProt entry, the sequences of proteins in these tests, tags left out. Where a name states a change or a piece, a line headed by the entry shows the natural chain unless it says otherwise.
# UniProt C7C422: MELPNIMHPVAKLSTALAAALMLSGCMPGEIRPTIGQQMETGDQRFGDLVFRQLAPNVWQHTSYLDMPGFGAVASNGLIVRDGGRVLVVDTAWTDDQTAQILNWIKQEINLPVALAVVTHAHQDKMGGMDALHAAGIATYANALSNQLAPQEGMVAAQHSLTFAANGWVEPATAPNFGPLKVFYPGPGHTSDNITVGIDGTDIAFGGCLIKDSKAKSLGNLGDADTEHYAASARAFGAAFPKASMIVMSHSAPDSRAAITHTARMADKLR
# Out of some 6,900 compounds screened, fewer than 10 were called active. Calls follow the shape of the dose curve; as a rule, active = well fitted curve in the direction sought with a large enough effect; inconclusive = small, poorly fitted or top-dose-only effect, or another doubt; inactive = no such curve, though single readings can be large or run the other way. Some of the results follow.
# Target: Metallo-beta-lactamase type 2 (Klebsiella pneumoniae) (UniProt C7C422)
# Experiment: qHTS to identify inhibitors of the New Delhi Metallo-beta-lactamase (NDM): primary screen against the NCATS Gemini Collection; also: % of control where 0% means no effect
# Conditions: NDM-1 enzyme, meropenem hydrolysis, absorbance 300 nm; at 38.4 µM (top of the series) unless noted
# Method in brief: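 NDM-1 at 2 nM final in 50 mM HEPES pH 7.0, 1 uM ZnSO4, 0.01% Tween20, preincubated >30 min with compound. Meropenem 50 uM final added; absorbance at 300 nm after 30 min.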
row,SMILES,activity % (negative = inhibition)
1,O[C@@H]1CO[C@H]2[C@@H]1OC[C@@H]2n1nnnc1Sc1ncccn1,inactive: -0.504% [at 57.5 µM]
2,COc1ccc(C(=O)N2CCn3nc(C(O)CS(C)(=O)=O)cc3C2)cn1 (configuration not stated),inactive: 8.65%
3,O=C(O)C[C@@H]1CCN(C(=O)c2ccc(F)cc2)C[C@@H]1CCN1CCN(c2ccc(F)cc2)CC1,inactive: -0.0953%
4,O=C(NC1CCCCC1)c1ccc2oc(-c3ccnc(Cl)c3)nc2c1,inactive: 2.2%
5,Cc1ccc(S(=O)(=O)NC[C@H]2OC[C@@H](NCc3ccc(S(C)(=O)=O)cc3)[C@@H]2O)cc1,inactive: -1.22%
6,CCCOc1c(CN2CCCNCC2)cc(Cl)cc1OC,inactive: -3.43%
7,CN1C(=O)N(C)C2(CCN(CCOc3ccccc3)C2)C1=O (configuration not stated),inactive: -7.52%
8,CCNC(=O)N1CC[C@H]2CC(=O)N(CCc3cccc(OC)c3OC)CC[C@H]2C1,inactive: -7.76% [at 57.5 µM]
9,Cc1ccccc1Cn1cc(-c2ccncc2)cc1C(=O)N1CCCC1,inactive: 15.8%
10,Cn1nc(C(=O)N2CCOc3ccc(CCC(N)=O)cc3C2)c2ccccc21,inactive: 6.62%
11,O=C(Nc1ccccc1F)N1CC2CCC(C1)N2Cc1ccc(-c2cc(F)cc(F)c2)cc1,inactive: 0.611%
12,CN(C)C[C@@H]1CN(Cc2cccnc2)C[C@H]1NC(=O)CCn1cccn1,inactive: 25.7%
13,O=C(c1cc2n(n1)CC(c1ccc(Cl)cc1)OC2)N1CCCCC1 (configuration not stated),inactive: 14.8%
14,O=C(NCCCc1ccccc1)C1CN(C2CCCC2)C(=O)N1 (configuration not stated),inactive: 6.24% [at 57.5 µM]
15,Cc1ccc(CC(=O)N2CCC3(C2)C(=O)N(C)c2ccccc23)cc1 (configuration not stated),inactive: -1.96%
16,O=C1Nc2ccccc2C2(CCN(C(=O)c3ccccc3F)C2)O1 (configuration not stated),inactive: -0.396% [at 57.5 µM]
17,O=C(NC1CCCCC1)c1ccc2nnc(Cc3ccc(Cl)cc3)n2c1,inactive: 35.2%
18,CC(c1cccc(-c2cccc(C(=O)N(C)C)n2)c1)N1CCCC1 (configuration not stated),inactive: -4.1%
19,C=CCN1CCN(C(=O)c2ccc3c(c2)C(O)CCCCCN3CCOC)CC1 (configuration not stated),inactive: -0.725%
20,O=C(c1ccccc1)N1CCC2(CC1)C(=O)NCN2Cc1ccc(Cl)cc1,inactive: -8.28%
21,COCC(=O)NC[C@H]1O[C@@H](CO)[C@@H](O)[C@H]1N1CCc2ccccc2C1,inactive: 2.47% [at 57.5 µM]

# Sorted by heavy-atom count (falling): part of the list above
row,SMILES,activity % (negative = inhibition)
13,O=C(c1cc2n(n1)CC(c1ccc(Cl)cc1)OC2)N1CCCCC1 (configuration not stated),inactive: 14.8%
7,CN1C(=O)N(C)C2(CCN(CCOc3ccccc3)C2)C1=O (configuration not stated),inactive: -7.52%
1,O[C@@H]1CO[C@H]2[C@@H]1OC[C@@H]2n1nnnc1Sc1ncccn1,inactive: -0.504% [at 57.5 µM]

# (list continues)

row,SMILES,activity % (negative = inhibition)
1,Cc1nn2c(c1-c1cccnc1N1CCOCC1)N(C(=O)c1cc3ccccc3n1C)CCC2,inactive: 43.4%
2,COc1ccccc1CN1CCCC(CN(CCN(C)C)C(=O)c2ccccc2OC)C1 (configuration not stated),inactive: 6.01%
3,CN(CCCN1c2ccccc2CCc2ccccc21)C(=O)C1CNCCO1 (configuration not stated),inactive: 0.427%
4,CC(C)(C)CC(=O)N1CCN2C(=O)c3ccc(Cl)cc3NC(=O)[C@H]2C1,inactive: 51.1% [at 57.5 µM]
5,COc1cccc(-c2cc(C3CCN(C(=O)Nc4ccccc4C(F)(F)F)CC3)[nH]n2)c1,inactive: -2.65%
6,COc1ccc(N2CC3CCC(C2)N3CC2CCCC2)cc1,inactive: 5.97% [at 57.5 µM]
7,Cc1cccc(=O)n1CCC(=O)NCc1cc2n(n1)CCN(C(=O)N(C)C)C2,inactive: 2.33%
8,O=C(c1cccs1)N1CCCCCC1CN1CCCC1 (configuration not stated),inactive: 27.3%
9,Cc1cc(CN2C[C@@H](CO)[C@H](C(=O)N(C)C)C2)n(C)n1,inactive: 2.83%
10,Cc1ccsc1C(=O)N1CCCC(CN2CCCC2)CC1 (configuration not stated),inactive: 0.12%
11,COCc1noc([C@@H]2CC(F)(F)CN2C(=O)Cc2cccc(F)c2)n1,inactive: 0.871%
12,COc1ccc(CN2Cc3[nH]cnc3C[C@H]2c2nc(Cc3ccccc3)no2)cc1,inactive: 8.11% [at 57.5 µM]
13,CCCN1CCCC2(CCN(C(=O)c3ccc4nc(C)sc4c3)C2)C1=O (configuration not stated),inactive: 8.31%
14,COc1ccc(CCNC(=O)C23CCC=C2N(C2CCCC2)C(=O)CC3)cc1OC (configuration not stated),inactive: -8.22%
15,Cc1ccncc1-c1c(C)nn2c1N(Cc1ccc(C(=O)O)cc1)CCC2,inactive: 11.7% [at 57.5 µM]
16,OCC1(Cc2ccccc2)CCCN(Cc2cn[nH]c2-c2ccc(F)cc2)C1 (configuration not stated),inactive: -1.94%
17,O=C(N[C@H]1CO[C@H]2[C@@H]1OC[C@@H]2Nc1nccc(-c2ccco2)n1)c1ccco1,inactive: 25.5% [at 57.5 µM]
18,CC(C)(C)c1cc(C[C@H]2CNCC[C@H]2CC(=O)NC2CCCCC2)no1,inactive: 0.167% [at 57.5 µM]
19,CC(=O)N1CCC(N2CC[C@H](c3nc4ccccc4s3)C2)CC1,inactive: 60.4% [at 57.5 µM]
20,COC[C@H]1C[C@@H](NS(C)(=O)=O)[C@H](O)[C@@H]1O,inactive: -0.945% [at 77.1 µM]
21,OCC1(CC2CC2)CCCN(Cc2ccc(C(F)(F)F)nc2)C1 (configuration not stated),inactive: -1.97%
